The target in assay [1] is T1, heterogeneous nuclear ribonucleoprotein M, C-terminally GFP-tagged (hnRNPM-GFP) (human) (UniProt P52272).
T1 sequence: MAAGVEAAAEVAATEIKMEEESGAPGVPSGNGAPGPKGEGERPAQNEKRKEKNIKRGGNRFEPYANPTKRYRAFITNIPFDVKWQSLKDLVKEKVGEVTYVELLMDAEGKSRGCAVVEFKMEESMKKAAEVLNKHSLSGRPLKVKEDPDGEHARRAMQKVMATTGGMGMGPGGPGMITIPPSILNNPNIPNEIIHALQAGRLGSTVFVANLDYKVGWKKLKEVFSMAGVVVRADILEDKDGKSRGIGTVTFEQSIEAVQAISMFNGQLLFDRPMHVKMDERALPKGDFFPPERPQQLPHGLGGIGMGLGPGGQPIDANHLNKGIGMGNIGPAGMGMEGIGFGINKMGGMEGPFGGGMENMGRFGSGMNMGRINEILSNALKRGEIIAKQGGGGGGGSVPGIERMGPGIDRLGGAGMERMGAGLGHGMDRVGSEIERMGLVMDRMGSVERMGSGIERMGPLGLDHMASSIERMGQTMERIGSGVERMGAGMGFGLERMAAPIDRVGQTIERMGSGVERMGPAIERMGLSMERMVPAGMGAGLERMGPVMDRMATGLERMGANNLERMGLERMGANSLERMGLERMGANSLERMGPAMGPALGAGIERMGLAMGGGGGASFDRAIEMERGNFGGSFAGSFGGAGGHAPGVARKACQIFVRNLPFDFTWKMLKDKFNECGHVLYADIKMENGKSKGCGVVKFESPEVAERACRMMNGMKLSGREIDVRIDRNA
The assay is described as follows: affinity purification with mass spectrometry; GFP-Trap magnetic agarose on lysates of non-stimulated THP-1 cells expressing hnRNPM-GFP, ELAVL1-GFP or GFP (control); TAP lysis buffer (100 mM NaCl, 50 mM Tris/HCl, 1.5 mM MgCl2, 5% glycerol, 0.5% IGEPAL CA-630, pH 7.5), 4 °C overnight; LC-MS/MS, enrichment against GFP.

The chains behind the UniProt entries cited, without tags or fusion partners.
UniProt O00571: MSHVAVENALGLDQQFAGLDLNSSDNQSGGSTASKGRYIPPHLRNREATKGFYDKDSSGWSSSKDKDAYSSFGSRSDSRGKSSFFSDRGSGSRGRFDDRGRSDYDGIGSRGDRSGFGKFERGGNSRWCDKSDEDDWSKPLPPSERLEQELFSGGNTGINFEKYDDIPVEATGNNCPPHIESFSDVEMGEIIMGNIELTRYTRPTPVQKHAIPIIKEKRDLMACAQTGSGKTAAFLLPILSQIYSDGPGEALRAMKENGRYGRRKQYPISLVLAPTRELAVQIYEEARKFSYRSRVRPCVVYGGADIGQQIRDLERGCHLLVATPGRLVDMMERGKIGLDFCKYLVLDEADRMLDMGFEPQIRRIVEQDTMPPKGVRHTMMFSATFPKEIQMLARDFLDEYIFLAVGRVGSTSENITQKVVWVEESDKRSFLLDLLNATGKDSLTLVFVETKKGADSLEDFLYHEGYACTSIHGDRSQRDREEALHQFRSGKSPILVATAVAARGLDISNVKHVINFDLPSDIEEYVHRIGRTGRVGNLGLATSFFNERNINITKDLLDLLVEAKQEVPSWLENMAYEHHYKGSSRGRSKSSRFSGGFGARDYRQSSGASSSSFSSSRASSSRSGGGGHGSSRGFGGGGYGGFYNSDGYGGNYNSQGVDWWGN
UniProt Q7Z2W4: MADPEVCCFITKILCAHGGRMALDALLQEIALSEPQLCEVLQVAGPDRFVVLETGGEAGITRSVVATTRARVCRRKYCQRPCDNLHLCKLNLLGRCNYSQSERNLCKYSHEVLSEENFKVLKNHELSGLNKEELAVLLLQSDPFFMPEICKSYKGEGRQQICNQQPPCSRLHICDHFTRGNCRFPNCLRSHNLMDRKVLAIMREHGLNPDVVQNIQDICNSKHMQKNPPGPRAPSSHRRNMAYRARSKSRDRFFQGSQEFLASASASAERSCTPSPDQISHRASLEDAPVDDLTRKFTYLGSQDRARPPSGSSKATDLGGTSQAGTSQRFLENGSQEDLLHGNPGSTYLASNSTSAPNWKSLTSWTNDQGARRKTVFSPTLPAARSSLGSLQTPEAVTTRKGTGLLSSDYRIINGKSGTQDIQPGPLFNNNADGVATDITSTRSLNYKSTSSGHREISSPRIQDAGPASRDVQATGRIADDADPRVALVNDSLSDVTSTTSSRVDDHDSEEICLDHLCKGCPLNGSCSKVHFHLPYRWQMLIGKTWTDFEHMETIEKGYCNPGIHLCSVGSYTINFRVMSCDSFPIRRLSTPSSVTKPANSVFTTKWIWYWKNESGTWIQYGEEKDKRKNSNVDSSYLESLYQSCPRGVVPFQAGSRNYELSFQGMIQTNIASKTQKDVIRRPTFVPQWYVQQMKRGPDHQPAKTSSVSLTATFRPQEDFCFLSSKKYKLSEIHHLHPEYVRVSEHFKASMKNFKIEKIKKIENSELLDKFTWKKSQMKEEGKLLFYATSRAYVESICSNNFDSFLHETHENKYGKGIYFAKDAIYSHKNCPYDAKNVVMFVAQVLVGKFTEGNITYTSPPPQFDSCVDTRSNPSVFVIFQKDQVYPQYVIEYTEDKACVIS
UniProt O43143: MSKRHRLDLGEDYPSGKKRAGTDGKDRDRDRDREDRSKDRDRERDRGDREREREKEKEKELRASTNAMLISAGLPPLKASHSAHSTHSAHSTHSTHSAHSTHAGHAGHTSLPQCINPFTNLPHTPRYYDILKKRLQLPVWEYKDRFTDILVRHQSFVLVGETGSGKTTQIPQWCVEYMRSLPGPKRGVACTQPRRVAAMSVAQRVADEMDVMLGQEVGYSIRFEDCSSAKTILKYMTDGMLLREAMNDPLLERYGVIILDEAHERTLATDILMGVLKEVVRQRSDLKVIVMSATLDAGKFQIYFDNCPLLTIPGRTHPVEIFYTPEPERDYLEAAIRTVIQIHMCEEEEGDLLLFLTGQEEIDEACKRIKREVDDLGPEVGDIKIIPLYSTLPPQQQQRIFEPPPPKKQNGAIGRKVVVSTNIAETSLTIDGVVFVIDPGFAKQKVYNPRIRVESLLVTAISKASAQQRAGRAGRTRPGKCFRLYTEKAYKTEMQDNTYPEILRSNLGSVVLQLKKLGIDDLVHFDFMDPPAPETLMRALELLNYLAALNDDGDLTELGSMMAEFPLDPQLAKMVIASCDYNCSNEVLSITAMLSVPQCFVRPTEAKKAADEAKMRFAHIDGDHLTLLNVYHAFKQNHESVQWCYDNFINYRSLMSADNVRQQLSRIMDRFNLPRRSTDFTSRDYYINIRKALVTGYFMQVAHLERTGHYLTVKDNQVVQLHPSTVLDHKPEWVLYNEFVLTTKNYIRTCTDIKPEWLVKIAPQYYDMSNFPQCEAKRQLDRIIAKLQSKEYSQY
UniProt P78527: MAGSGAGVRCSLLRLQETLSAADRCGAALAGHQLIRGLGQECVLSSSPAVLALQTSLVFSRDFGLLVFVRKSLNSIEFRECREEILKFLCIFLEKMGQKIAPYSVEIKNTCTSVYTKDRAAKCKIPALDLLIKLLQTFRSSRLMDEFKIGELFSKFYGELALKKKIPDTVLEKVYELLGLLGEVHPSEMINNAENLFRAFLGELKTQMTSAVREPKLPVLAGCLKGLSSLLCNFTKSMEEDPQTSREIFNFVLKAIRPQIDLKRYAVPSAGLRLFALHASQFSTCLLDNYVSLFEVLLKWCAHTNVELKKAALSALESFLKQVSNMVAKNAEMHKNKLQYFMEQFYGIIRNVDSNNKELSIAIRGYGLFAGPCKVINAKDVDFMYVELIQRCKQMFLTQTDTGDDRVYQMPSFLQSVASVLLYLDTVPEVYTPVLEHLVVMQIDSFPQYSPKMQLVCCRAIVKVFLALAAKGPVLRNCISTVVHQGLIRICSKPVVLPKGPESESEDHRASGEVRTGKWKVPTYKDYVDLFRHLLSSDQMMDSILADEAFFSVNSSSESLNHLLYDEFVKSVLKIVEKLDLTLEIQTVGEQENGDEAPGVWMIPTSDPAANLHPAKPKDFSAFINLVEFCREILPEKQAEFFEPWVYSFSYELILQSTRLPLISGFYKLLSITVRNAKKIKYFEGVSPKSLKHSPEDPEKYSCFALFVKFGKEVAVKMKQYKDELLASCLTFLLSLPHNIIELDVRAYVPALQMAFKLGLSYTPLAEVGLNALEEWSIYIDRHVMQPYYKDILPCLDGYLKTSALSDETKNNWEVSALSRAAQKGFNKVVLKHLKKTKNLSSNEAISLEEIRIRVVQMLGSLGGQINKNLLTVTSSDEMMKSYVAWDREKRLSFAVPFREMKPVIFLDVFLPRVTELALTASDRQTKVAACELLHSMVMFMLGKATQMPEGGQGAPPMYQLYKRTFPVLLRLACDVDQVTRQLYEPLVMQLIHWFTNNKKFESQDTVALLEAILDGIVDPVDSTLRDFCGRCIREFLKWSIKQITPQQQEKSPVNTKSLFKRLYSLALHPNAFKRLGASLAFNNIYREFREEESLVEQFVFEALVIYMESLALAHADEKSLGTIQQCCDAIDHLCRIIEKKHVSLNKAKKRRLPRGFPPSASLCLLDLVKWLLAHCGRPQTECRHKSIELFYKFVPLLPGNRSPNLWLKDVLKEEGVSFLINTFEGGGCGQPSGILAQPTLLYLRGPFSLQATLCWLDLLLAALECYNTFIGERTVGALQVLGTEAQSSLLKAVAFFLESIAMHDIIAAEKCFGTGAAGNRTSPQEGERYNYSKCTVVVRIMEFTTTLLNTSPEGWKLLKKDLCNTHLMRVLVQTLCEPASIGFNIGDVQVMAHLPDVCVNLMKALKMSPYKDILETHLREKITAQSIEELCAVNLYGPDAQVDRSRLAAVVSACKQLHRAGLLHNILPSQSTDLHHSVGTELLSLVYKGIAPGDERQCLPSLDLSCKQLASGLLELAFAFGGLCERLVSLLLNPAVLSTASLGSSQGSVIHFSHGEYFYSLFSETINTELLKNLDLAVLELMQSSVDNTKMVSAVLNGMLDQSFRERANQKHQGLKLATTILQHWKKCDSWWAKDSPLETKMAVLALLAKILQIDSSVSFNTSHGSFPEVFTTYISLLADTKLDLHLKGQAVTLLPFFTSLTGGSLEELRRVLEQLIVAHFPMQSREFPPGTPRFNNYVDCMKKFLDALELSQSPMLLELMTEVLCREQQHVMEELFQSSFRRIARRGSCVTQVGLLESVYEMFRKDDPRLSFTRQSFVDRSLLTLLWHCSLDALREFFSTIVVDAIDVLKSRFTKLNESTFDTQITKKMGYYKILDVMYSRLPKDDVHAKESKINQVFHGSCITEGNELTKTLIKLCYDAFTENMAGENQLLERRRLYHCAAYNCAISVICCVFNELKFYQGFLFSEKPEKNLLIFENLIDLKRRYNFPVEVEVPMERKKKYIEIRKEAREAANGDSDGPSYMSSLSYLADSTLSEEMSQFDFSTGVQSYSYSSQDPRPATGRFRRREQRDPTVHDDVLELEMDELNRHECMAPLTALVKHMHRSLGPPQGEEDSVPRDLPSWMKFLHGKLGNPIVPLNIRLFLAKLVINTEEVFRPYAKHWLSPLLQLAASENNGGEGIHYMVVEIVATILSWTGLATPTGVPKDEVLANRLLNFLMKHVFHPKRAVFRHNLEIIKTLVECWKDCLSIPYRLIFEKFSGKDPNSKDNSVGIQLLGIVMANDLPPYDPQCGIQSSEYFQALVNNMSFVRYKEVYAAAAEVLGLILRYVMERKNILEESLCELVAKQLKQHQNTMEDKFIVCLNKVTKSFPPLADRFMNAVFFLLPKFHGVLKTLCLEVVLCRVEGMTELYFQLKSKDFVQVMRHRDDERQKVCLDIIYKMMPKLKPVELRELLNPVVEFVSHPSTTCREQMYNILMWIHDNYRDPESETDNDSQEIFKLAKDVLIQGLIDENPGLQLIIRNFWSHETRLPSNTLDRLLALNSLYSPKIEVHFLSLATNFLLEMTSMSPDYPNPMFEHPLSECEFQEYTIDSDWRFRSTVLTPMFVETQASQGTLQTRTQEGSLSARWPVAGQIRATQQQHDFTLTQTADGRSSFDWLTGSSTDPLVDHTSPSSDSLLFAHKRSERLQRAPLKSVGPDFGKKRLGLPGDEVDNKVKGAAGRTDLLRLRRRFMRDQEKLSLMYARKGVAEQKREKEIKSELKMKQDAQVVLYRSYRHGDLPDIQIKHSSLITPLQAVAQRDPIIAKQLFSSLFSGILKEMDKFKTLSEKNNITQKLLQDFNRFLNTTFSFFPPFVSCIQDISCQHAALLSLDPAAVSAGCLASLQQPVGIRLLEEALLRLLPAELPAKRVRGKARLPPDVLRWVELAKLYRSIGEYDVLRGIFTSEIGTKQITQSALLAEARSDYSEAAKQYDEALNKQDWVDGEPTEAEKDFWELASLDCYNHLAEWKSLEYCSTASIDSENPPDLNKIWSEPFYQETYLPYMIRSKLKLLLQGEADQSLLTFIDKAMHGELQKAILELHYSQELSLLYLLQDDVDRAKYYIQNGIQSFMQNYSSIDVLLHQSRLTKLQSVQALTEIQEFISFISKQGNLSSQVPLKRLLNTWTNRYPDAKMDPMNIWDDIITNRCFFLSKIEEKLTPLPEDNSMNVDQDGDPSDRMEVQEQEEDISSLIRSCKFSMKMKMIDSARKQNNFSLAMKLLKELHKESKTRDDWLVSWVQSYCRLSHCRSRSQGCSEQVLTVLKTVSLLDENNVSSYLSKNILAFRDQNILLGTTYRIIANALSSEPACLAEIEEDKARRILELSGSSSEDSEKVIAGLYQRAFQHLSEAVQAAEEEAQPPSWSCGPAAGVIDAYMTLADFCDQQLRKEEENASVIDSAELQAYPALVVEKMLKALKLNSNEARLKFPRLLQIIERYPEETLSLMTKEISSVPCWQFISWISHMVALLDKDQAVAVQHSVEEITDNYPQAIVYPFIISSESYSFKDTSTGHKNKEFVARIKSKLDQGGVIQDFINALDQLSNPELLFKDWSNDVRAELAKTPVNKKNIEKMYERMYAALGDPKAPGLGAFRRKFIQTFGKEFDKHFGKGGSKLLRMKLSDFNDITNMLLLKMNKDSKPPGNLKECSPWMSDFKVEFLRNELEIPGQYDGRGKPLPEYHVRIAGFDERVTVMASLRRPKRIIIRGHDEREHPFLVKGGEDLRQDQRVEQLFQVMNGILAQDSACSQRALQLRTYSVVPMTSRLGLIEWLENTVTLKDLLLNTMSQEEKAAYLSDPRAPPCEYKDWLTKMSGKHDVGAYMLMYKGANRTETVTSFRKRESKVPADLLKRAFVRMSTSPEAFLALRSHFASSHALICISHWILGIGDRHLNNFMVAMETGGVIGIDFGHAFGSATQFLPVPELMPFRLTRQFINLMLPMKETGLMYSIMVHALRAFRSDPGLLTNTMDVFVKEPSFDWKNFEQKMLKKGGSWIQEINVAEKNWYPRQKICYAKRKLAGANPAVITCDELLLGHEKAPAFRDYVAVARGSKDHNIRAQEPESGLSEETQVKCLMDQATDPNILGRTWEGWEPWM

The target in assay [2] is ELAV-like protein 1, GFP-tagged (ELAVL1-GFP) (human) (UniProt Q15717). Described as above.

No constants are given. Whether binding was seen depends on the method and setting. In cells and extracts the contact can be indirect. A yes stands for co-enrichment or nearness to the bait. Other partners may have been found. For some of these results: Where a sequence is shown, tags or fusion partners need not be part of it.

In the case of “ELAV-like protein 1 (ELAVL1), endogenous in THP-1 (from UniProt Q15717 1-326)”, the binding entry in assay [1] is recorded as “binds”.
Same read-out and setting: the result for “DEAD-box helicase 3 X-linked (DDX3X), endogenous in THP-1 (from UniProt O00571 1-662)” reads “binds”.
As for “zinc finger CCCH-type antiviral protein 1 (ZC3HAV1), endogenous in THP-1 (from UniProt Q7Z2W4 1-902)”, in assay [1], the binding entry is recorded as “binds”.
On to “pre-mRNA-splicing factor ATP-dependent RNA helicase DHX15 (DHX15), endogenous in THP-1 (from UniProt O43143 1-795)”, for which the binding entry in assay [1] is “binds”.
Still for that read-out and setting: then “DNA-dependent protein kinase catalytic subunit (PRKDC), endogenous in THP-1 (from UniProt P78527 1-4128)”, with “binds”.

B1: IκB kinase β (IKKβ), endogenous in THP-1 (protein, UniProt O14920 1-756)
chain: MSWSPSLTTQTCGAWEMKERLGTGGFGNVIRWHNQETGEQIAIKQCRQELSPRNRERWCLEIQIMRRLTHPNVVAARDVPEGMQNLAPNDLPLLAMEYCQGGDLRKYLNQFENCCGLREGAILTLLSDIASALRYLHENRIIHRDLKPENIVLQQGEQRLIHKIIDLGYAKELDQGSLCTSFVGTLQYLAPELLEQQKYTVTVDYWSFGTLAFECITGFRPFLPNWQPVQWHSKVRQKSEVDIVVSEDLNGTVKFSSSLPYPNNLNSVLAERLEKWLQLMLMWHPRQRGTDPTYGPNGCFKALDDILNLKLVHILNMVTGTIHTYPVTEDESLQSLKARIQQDTGIPEEDQELLQEAGLALIPDKPATQCISDGKLNEGHTLDMDLVFLFDNSKITYETQISPRPQPESVSCILQEPKRNLAFFQLRKVWGQVWHSIQTLKEDCNRLQQGQRAAMMNLLRNNSCLSKMKNSMASMSQQLKAKLDFFKTSIQIDLEKYSEQTEFGITSDKLLLAWREMEQAVELCGRENEVKLLVERMMALQTDIVDLQRSPMGRKQGGTLDDLEEQARELYRRLREKPRDQRTEGDSQEMVRLLLQAIQSFEKKVRVIYTQLSKTVVCKQKALELLPKVEEVVSLMNEDEKTVVRLQEKRQKELWNLLKIACSKVRGPVSGSPDSMNASRLSQPGQLMSQPSTASNSLPEPAKKSEELVAEAHNLCTLLENAIQDTVREQDQSFTALDWSWLQTEEEEHSCLEQAS
As for B1, in assay [1], the binding result is given as “binds”.

B2: heterogeneous nuclear ribonucleoprotein M (hnRNPM), endogenous in THP-1 (protein, UniProt P52272 1-730)
chain: MAAGVEAAAEVAATEIKMEEESGAPGVPSGNGAPGPKGEGERPAQNEKRKEKNIKRGGNRFEPYANPTKRYRAFITNIPFDVKWQSLKDLVKEKVGEVTYVELLMDAEGKSRGCAVVEFKMEESMKKAAEVLNKHSLSGRPLKVKEDPDGEHARRAMQKVMATTGGMGMGPGGPGMITIPPSILNNPNIPNEIIHALQAGRLGSTVFVANLDYKVGWKKLKEVFSMAGVVVRADILEDKDGKSRGIGTVTFEQSIEAVQAISMFNGQLLFDRPMHVKMDERALPKGDFFPPERPQQLPHGLGGIGMGLGPGGQPIDANHLNKGIGMGNIGPAGMGMEGIGFGINKMGGMEGPFGGGMENMGRFGSGMNMGRINEILSNALKRGEIIAKQGGGGGGGSVPGIERMGPGIDRLGGAGMERMGAGLGHGMDRVGSEIERMGLVMDRMGSVERMGSGIERMGPLGLDHMASSIERMGQTMERIGSGVERMGAGMGFGLERMAAPIDRVGQTIERMGSGVERMGPAIERMGLSMERMVPAGMGAGLERMGPVMDRMATGLERMGANNLERMGLERMGANSLERMGLERMGANSLERMGPAMGPALGAGIERMGLAMGGGGGASFDRAIEMERGNFGGSFAGSFGGAGGHAPGVARKACQIFVRNLPFDFTWKMLKDKFNECGHVLYADIKMENGKSKGCGVVKFESPEVAERACRMMNGMKLSGREIDVRIDRNA
As for B2, the binding entry in assay [2] is “binds”.

The values above are taken from paper PMC11791083.
